# This is one part of the list.
# B1: Pbx2CASH domain (Cryptococcus neoformans) (protein)
# chain: GIPGPNRLYRLSGPIIFTAADQEIATYGYPTGSERAVLRVEGRNTATAIQGDCRRCARVSVKNLVVDGNRKKLGRMRDFQLATGLVVLGGNEGQSIQNSWIKNPRGFTAIHIREGDKLQCSGARVEKNEIGPVGEEYDPEKDGDDPEMSPLGRPLADGVSIACRDSFIRDNTFRDNTDAAIVVYCSPGTLIHA
# What was measured:
# Assay in all cases: glycan array binding signal (z-score within array); higher = stronger binding
# Details in all cases: glycan notation: IUPAC condensed, linker removed
# Gal(b1-4)Glc6S = target: Gal(b1-4)Glc6S
# Procedure, shortened: (§1)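 Glycan array binding is given as a within-array Z-score, which can be read as non-binding when negative. The arrays, 3228 of them, came from the Consortium for Functional Glycomics database and were retained only where the protein sequence was available. Z-scores were averaged across arrays of the same protein sequence at different concentrations or buffers and across linkers.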
# Gal(b1-4)GlcNAc = target: Gal(b1-4)GlcNAc
# Procedure, shortened: as §1
# [1] = target: Gal(b1-4)GlcNAc(a1-6)Gal(b1-4)GlcNAc
# Procedure, shortened: as §1
# Gal(b1-4)GlcNAc(b1-2)Man = target: Gal(b1-4)GlcNAc(b1-2)Man
# Procedure, shortened: as §1
# [2] = target: Gal(b1-4)GlcNAc(b1-2)Man(a1-3)Man(b1-4)GlcNAc(b1-4)GlcNAc
# Procedure, shortened: as §1
# [3] = target: Gal(b1-4)GlcNAc(b1-2)Man(a1-3)[Gal(b1-4)GlcNAc(b1-2)Man(a1-6)]Man(b1-4)GlcNAc(b1-4)GlcNAc
# Procedure, shortened: as §1
# [4] = target: Gal(b1-4)GlcNAc(b1-2)Man(a1-3)[Gal(b1-4)GlcNAc(b1-2)Man(a1-6)]Man(b1-4)GlcNAc(b1-4)[Fuc(a1-6)]GlcNAc
# Procedure, shortened: as §1
# [5] = target: Gal(b1-4)GlcNAc(b1-2)Man(a1-3)[Gal(b1-4)GlcNAc(b1-2)Man(a1-6)][Gal(b1-4)GlcNAc(b1-4)]Man(b1-4)GlcNAc(b1-4)[Fuc(a1-6)]GlcNAc
# Procedure, shortened: as §1
# [6] = target: Gal(b1-4)GlcNAc(b1-2)Man(a1-3)[Gal(b1-4)GlcNAc(b1-2)Man(a1-6)][GlcNAc(b1-4)]Man(b1-4)GlcNAc(b1-4)[Fuc(a1-6)]GlcNAc
# Procedure, shortened: as §1
# [7] = target: Gal(b1-4)GlcNAc(b1-2)Man(a1-3)[GlcNAc(b1-2)Man(a1-6)]Man(b1-4)GlcNAc(b1-4)GlcNAc
# Procedure, shortened: as §1
# [8] = target: Gal(b1-4)GlcNAc(b1-2)Man(a1-3)[GlcNAc(b1-4)][Gal(b1-4)GlcNAc(b1-2)Man(a1-6)]Man(b1-4)GlcNAc(b1-4)GlcNAc
# Procedure, shortened: as §1
# [9] = target: Gal(b1-4)GlcNAc(b1-2)Man(a1-3)[Man(a1-6)]Man(b1-4)GlcNAc(b1-4)GlcNAc
# Procedure, shortened: as §1
# [10] = target: Gal(b1-4)GlcNAc(b1-2)Man(a1-6)Man(b1-4)GlcNAc(b1-4)GlcNAc
# Procedure, shortened: as §1
# [11] = target: Gal(b1-4)GlcNAc(b1-2)Man(a1-6)[GlcNAc(b1-2)Man(a1-3)]Man(b1-4)GlcNAc(b1-4)GlcNAc
# Procedure, shortened: as §1
# [12] = target: Gal(b1-4)GlcNAc(b1-2)Man(a1-6)[Man(a1-3)]Man(b1-4)GlcNAc(b1-4)GlcNAc
# Procedure, shortened: as §1
# [13] = target: Gal(b1-4)GlcNAc(b1-2)[Gal(b1-4)GlcNAc(b1-4)]Man(a1-3)[Gal(b1-4)GlcNAc(b1-2)Man(a1-6)]Man(b1-4)GlcNAc(b1-4)GlcNAc
# Procedure, shortened: as §1
# [14] = target: Gal(b1-4)GlcNAc(b1-2)[Gal(b1-4)GlcNAc(b1-4)]Man(a1-3)[Gal(b1-4)GlcNAc(b1-2)[Gal(b1-4)GlcNAc(b1-6)]Man(a1-6)]Man(b1-4)GlcNAc(b1-4)GlcNAc
# Procedure, shortened: as §1
# [15] = target: Gal(b1-4)GlcNAc(b1-2)[Gal(b1-4)GlcNAc(b1-4)]Man(a1-3)[GlcNAc(b1-4)][Gal(b1-4)GlcNAc(b1-2)Man(a1-6)]Man(b1-4)GlcNAc(b1-4)GlcNAc
# Procedure, shortened: as §1
# [16] = target: Gal(b1-4)GlcNAc(b1-2)[Gal(b1-4)GlcNAc(b1-4)]Man(a1-3)[GlcNAc(b1-4)][Gal(b1-4)GlcNAc(b1-2)[Gal(b1-4)GlcNAc(b1-6)]Man(a1-6)]Man(b1-4)GlcNAc(b1-4)GlcNAc
# Procedure, shortened: as §1
# [17] = target: Gal(b1-4)GlcNAc(b1-2)[Gal(b1-4)GlcNAc(b1-6)]Man(a1-6)[Gal(b1-4)GlcNAc(b1-2)Man(a1-3)]Man(b1-4)GlcNAc(b1-4)GlcNAc
# Procedure, shortened: as §1
# [18] = target: Gal(b1-4)GlcNAc(b1-2)[Gal(b1-4)GlcNAc(b1-6)]Man(a1-6)[Gal(b1-4)GlcNAc(b1-2)Man(a1-3)]Man(b1-4)GlcNAc(b1-4)[Fuc(a1-6)]GlcNAc
# Procedure, shortened: as §1
# [19] = target: Gal(b1-4)GlcNAc(b1-2)[Gal(b1-4)GlcNAc(b1-6)]Man(a1-6)[GlcNAc(b1-4)][Gal(b1-4)GlcNAc(b1-2)Man(a1-3)]Man(b1-4)GlcNAc(b1-4)GlcNAc
# Procedure, shortened: as §1
binder,measurement,setting,value
B1,glycan array binding signal (z-score),Gal(b1-4)Glc6S,0.292
same,glycan array binding signal (z-score),Gal(b1-4)GlcNAc,-0.557
same,glycan array binding signal (z-score),[1],-0.503
same,glycan array binding signal (z-score),Gal(b1-4)GlcNAc(b1-2)Man,-0.471
same,glycan array binding signal (z-score),[2],-0.427
same,glycan array binding signal (z-score),[3],-0.501
same,glycan array binding signal (z-score),[4],-0.487
same,glycan array binding signal (z-score),[5],-0.745
same,glycan array binding signal (z-score),[6],-0.124
same,glycan array binding signal (z-score),[7],-0.104
same,glycan array binding signal (z-score),[8],0.173
same,glycan array binding signal (z-score),[9],-0.368
same,glycan array binding signal (z-score),[10],-0.46
same,glycan array binding signal (z-score),[11],-0.31
same,glycan array binding signal (z-score),[12],1
same,glycan array binding signal (z-score),[13],-0.138
same,glycan array binding signal (z-score),[14],-0.598
same,glycan array binding signal (z-score),[15],-0.355
same,glycan array binding signal (z-score),[16],0.057
same,glycan array binding signal (z-score),[17],-0.632
same,glycan array binding signal (z-score),[18],0.36
same,glycan array binding signal (z-score),[19],-0.049

# A run of entries from the list above, for reference:
binder,measurement,setting,value
B1,glycan array binding signal (z-score),[5],-0.745
same,glycan array binding signal (z-score),[6],-0.124
